According to article PMC10953254:
These are yes or no findings as the source states them, for the method shown. Binding seen in cells or lysates may run through a third protein. A yes stands for co-enrichment or nearness to the bait. Other partners may have been found.

Molecular target: GST-Cpgp40 (recombinant Cryptosporidium parvum gp40 fused to glutathione S-transferase) (Cryptosporidium parvum)
Experiment: affinity purification with mass spectrometry; purified GST-Cpgp40 (GST as control) immobilised on Glutathione Sepharose 4B beads, 4 °C 2 h; incubated with HCT-8 cell membrane proteins (1.5 mg/ml); SDS-PAGE with silver staining, LC-MS/MS; only the target purified

B1: protein S100-A8 (S100/A8) (protein, UniProt P05109 1-93)
chain: MLTELEKALNSIIDVYHKYSLIKGNFHAVYRDDLKKLLETECPQYIRKKGADVWFKELDINTDGAVNFQEFLILVIKMGVAAHKKSHEESHKE
- binding: binds
